Source: PubChem BioAssay AID1259254 (NCATS, 2017)
Here is a random part of about 59,000 reagents. Over the whole deposit, about 1,550 (2.6%) are marked active. 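G2 share is only a proxy for re-replication; each gene was hit by three separate siRNAs, and active genes were retested.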 Unmarked entries are inactive. The numbers tell different reagents against one gene apart. Further read-outs or replicates are left out here. Reagent sequences are not shown. Not given: the amount of reagent.

Screen: 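Gene knock-downs that lead to re-replication, shown by excess G2 DNA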 (primary screen)
System: human HCT116 colorectal cancer cells
Reagent: single siRNA against human genes
Time to read-out: 3 days
Read-out: 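Nuclei stained with Hoechst and imaged; cell-cycle phase assigned by DNA content; G2 share scaled per plate, non-targeting siRNA 0%, GMNN siRNA 100%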
Reading the numbers: G2 robust z-score and G2 cells, % of GMNN control: higher = more G2 cells, more excess DNA replication
Hit rule: 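An siRNA counts as active if its G2 robust z-score lies at least 5 MADs above the screen median; here such calls match roughly 38% of GMNN control or more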

For TP53RK #1, the values are G2 robust z-score -0.767; G2 cells, % of GMNN control -2.43. Depletion of TP53RK #2 came out at: G2 robust z-score 2.57; G2 cells, % of GMNN control 21. Against TP53RK #3, the entry reads G2 robust z-score -0.269; G2 cells, % of GMNN control 1.07. DIAPH2 #1 scored G2 robust z-score -0.695; G2 cells, % of GMNN control -1.92. DIAPH2 #2 gave G2 robust z-score 0.0599; G2 cells, % of GMNN control 3.39. For DIAPH2 #3, the values are G2 robust z-score -0.554; G2 cells, % of GMNN control -0.932.

With knock-down of KRT1 #1, the screen gave G2 robust z-score 2.25; G2 cells, % of GMNN control 18.8. KRT1 #2 scored G2 robust z-score -1.82; G2 cells, % of GMNN control -9.85. After knock-down of KRT1 #3, the screen gave G2 robust z-score 1.17; G2 cells, % of GMNN control 11.2. Against TMEM64 #1 the deposit lists G2 robust z-score 1.59; G2 cells, % of GMNN control 14.2. TMEM64 #2 scored G2 robust z-score 2.82; G2 cells, % of GMNN control 22.8. Against TMEM64 #3, the values are G2 robust z-score -0.0402; G2 cells, % of GMNN control 2.68.

Sorted by “G2 cells, % of GMNN control” (highest first): 2 of the entries above.
DIAPH2 #2 | G2 robust z-score = 0.0599; G2 cells, % of GMNN control = 3.39
DIAPH2 #3 | G2 robust z-score = -0.554; G2 cells, % of GMNN control = -0.932
